Assay [1] addresses p110β (PI3K catalytic subunit β, endogenous, in U87MG cell lysate) (human) (UniProt P42338). The experiment in a line: co-immunoprecipitation from U87MG cell lysate, immunoblot. A general note: A western blot detects proteins with antibodies after separation by electrophoresis.
Assay [2] has the same target. The assay can be described thus: co-immunoprecipitation of Cx43 and p110β in U87MG cells (FIG. 33F legend).

Protein sequences, listed by entry. Tags and fused reporters are not part of them. Residues count along the entry.
UniProt P42338: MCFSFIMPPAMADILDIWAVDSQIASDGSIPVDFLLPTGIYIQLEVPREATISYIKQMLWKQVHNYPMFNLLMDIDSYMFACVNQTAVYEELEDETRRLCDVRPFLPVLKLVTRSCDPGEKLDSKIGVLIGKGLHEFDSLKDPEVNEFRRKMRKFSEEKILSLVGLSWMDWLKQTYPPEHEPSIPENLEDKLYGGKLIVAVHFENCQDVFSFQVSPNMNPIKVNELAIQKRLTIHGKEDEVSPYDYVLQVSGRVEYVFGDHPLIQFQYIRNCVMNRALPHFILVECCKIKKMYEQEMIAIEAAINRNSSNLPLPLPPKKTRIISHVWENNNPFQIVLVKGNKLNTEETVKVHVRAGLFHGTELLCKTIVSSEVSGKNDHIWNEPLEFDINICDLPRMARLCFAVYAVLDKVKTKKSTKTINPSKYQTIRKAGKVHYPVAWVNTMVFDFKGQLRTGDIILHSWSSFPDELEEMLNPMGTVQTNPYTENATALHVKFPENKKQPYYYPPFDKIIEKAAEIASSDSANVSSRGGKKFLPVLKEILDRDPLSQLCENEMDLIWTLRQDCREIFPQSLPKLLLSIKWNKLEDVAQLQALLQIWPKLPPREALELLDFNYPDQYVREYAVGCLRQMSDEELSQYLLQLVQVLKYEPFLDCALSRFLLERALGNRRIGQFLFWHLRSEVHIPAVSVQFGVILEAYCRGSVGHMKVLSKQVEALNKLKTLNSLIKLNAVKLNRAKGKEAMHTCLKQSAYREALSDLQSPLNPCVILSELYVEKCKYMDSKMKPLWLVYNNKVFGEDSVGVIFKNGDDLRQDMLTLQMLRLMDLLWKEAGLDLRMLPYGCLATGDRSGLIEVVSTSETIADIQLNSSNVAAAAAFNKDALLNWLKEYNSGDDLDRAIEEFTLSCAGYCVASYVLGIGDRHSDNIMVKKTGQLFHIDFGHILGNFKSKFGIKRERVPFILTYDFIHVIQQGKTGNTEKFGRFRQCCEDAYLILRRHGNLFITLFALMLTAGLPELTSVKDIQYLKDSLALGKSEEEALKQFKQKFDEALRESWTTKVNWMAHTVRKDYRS
UniProt P17302, residues 2-382: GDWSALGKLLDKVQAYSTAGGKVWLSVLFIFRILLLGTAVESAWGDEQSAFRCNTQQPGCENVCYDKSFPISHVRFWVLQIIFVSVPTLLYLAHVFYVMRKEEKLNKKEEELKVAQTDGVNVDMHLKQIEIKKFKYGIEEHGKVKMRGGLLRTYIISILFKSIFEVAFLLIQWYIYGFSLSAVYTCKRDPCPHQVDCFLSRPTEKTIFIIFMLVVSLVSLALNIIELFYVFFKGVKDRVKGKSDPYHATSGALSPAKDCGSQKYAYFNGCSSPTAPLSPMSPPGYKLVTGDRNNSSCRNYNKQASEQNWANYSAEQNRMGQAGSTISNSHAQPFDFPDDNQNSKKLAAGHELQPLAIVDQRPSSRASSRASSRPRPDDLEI

No constants are given. Whether binding was seen depends on the method and setting. Binding seen in cells or lysates may run through a third protein. Some binding calls cover weakened binding; strength is not graded here.

Consider “connexin 43 (endogenous, in U87MG cell lysate) (from UniProt P17302 2-382)”, for which the binding result in assay [1] and in assay [2] was “binds” each time.

The record behind these values is patent US20240075093A1, “COMPOSITIONS AND METHODS OF TREATING A PI3K MEDIATED DISEASE” (VIRGINIA TECH INTELLECTUAL PROPERTIES, INC., priority 2020, published 2024).
